Data as given in patent publication US20260126382A1, “INTELLIGENT NIR II PHOTOTHERMAL AND COLORIMETRIC SENSING TECHNOLOGY” (Nanyang Technological University, priority 2022, published 2026).

Tested on: myrosinase (Myr)
Assay: Effect of interfering substances (metal ions, small molecules, amino acids, EDTA) on the Myr test system
Assay type: biochemical
Conditions: for increase of temperature (ΔTemp) of Myr test system: 1064 nm laser 1 W/cm2, 5 min; for absorbance at 1064 nm of the Myr test system: added to system containing Sin, GOx, TMB and AuNPs (EDTA: after Cu^2+)
Protocol: For Myr detection, Sin (2.5 mM, 30 μL) and GOx (5 mg/mL, 10 μL, according to previous literature (Jiang, C. et al., RSC Adv. 2017, 7, 44463-44469)) were mixed with different concentrations of Myr first, and reacted at 37° C. for 30 min to generate H2O2. Then, an acetate buffer containing TMB and AuNPs was added into the aforementioned solution, incubated at 45° C. for 25 min, and cooled to room temperature. Afterward, the solution was used for the analysis of Myr enzyme activity.
For the anti-interference experiments discussed below, Sin (2.5 mM, 30 μL) and GOx (5 mg/mL, 10 μL) were mixed with different interfering substances first and reacted at 37° C. for 30 min. Then, acetate buffer containing TMB and AuNPs were added into the above solution, incubated at 45° C. for 25 min, and cooled to room temperature, and afterwards, the solution was used for photothermal and colorimetric analysis.

Compound	increase of temperature (ΔTemp) of Myr test system (Cu^2+ added to Sin+Myr+GOx+TMB+AuNPs, 22.1° C. without Cu^2+) [°C]	absorbance at 1064 nm of the Myr test system	increase of temperature (ΔTemp) of Myr test system (EDTA added to the system containing Cu^2+) [°C]
[Cu+2] [Cu^2+]	3.9	declined dramatically	
O=C(O)CN(CCN(CC(=O)O)CC(=O)O)CC(=O)O [EDTA, ethylenediaminetetraacetic acid]		recovered significantly	19
